This note sets out measurements from paper PMC12276012, “Molecular mechanisms of biomolecular condensate formation in Drosophila melanogaster siRNA biogenesis”.

Chains of the proteins cited; added tags and fusions are not shown. A line that says so, or that is headed by a name, gives the form on record, which may keep a tag or linker.
Ago2 4-repeat (Drosophila melanogaster), one chain, as listed by the source: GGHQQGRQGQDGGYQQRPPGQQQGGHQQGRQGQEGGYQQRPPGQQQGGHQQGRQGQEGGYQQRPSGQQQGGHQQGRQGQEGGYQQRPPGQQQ

For at least one entry, the source does not settle the construct or the ends of the probe. At least one verdict rests on a figure or table, not on a statement of the authors.

This data set has as its system Ago2 4-repeat (Drosophila melanogaster). The data set is described as follows: NMR (dense phase). Particulars: protein 3 mM, condensed with hairpin DNA; NMR: 20 mM sodium phosphate pH 6.5, PS-I or PS-II buffer (50-500 mM NaCl), 292 K for Loqs-PD deltaC; recombinant protein; protein details: His6 tag cleaved by TEV; folded or branched DNA.

With “GGAGCTTTCAAAATGATCTCCGTGAGGAGATCATTTTGAAAGCTCCTATAGTGAGTCGTATTA [21 bp hairpin dsDNA]”, the binding result is “binds”.
